Test [1] concerns the target T1, Nop14p-HA (S. cerevisiae) (UniProt Q99207).
T1 sequence: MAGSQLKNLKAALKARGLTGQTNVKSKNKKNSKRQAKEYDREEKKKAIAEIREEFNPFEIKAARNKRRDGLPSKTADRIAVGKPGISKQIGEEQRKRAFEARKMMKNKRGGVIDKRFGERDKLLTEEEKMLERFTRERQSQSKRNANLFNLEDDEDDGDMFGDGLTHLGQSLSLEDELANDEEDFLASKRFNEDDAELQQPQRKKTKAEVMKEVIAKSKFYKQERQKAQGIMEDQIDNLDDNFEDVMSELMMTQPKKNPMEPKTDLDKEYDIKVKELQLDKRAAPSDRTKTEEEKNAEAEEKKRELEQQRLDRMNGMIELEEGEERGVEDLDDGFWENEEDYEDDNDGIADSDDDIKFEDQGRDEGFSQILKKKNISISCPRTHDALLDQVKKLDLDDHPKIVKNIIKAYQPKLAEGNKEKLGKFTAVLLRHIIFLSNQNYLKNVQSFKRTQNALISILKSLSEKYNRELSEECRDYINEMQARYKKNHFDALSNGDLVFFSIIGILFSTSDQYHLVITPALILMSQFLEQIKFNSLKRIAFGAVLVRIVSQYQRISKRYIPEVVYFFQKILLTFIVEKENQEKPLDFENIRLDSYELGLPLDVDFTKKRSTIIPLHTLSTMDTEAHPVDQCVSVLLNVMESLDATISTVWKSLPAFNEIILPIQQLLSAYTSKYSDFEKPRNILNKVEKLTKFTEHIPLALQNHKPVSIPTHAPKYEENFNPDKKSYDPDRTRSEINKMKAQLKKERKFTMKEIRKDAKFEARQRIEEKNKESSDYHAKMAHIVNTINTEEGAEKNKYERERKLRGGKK
In words: co-IP; HA-tagged Nop14p immunoprecipitated with anti HA antibodies from the corresponding yeast cell extracts; co-precipitated Noc4p variants analysed (Fig. S1B).

By UniProt entry, the sequences of proteins in these tests, tags left out. Where a name states a change or a piece, a line headed by the entry shows the natural chain unless it says otherwise.
UniProt Q06512: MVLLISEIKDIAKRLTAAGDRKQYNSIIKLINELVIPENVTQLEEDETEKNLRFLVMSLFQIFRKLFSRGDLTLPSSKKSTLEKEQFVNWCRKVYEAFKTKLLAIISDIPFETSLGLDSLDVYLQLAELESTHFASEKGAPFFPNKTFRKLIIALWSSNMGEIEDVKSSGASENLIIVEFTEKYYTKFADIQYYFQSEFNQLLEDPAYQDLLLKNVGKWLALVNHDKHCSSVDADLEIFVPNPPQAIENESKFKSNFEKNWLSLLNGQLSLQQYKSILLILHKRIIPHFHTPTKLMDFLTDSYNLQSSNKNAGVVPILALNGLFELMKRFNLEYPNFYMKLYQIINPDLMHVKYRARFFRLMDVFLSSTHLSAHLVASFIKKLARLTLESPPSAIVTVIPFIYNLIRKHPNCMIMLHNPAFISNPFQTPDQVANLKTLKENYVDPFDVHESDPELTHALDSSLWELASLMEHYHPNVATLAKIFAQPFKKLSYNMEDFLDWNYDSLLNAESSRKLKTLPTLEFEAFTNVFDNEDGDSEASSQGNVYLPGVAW

The target of test [2] is ProtA-Noc4p lacking Domain 1 to 4 (S. cerevisiae). In words: co-IP; ProtA-Noc4p variants affinity purified on IgG-Sepharose from extracts of yeast ToY489 after 16 h on glucose to shut off wild-type NOC4; buffer A200 (200 mM KCl, 20 mM Tris pH 8.0, 5 mM MgAc, 1 mM DTT), 4°C; Nop14p-HA detected by Western blot with anti-HA.
Test [3] addresses ProtA-Noc4p lacking Domain 8 (S. cerevisiae). Described as above.
Test [4] deals with ProtA-Noc4p lacking Domain 5 (S. cerevisiae) (UniProt Q06512). The test is described as above.

No constants are given. Whether binding was seen depends on the method and setting. In cells and extracts the contact can be indirect. For some assays here: Binding can be weak; no strength is given. Sequences can lack the tags named with a protein.

Take “ProtA-Noc4p lacking Domain 5 (from UniProt Q06512)”: the binding result in test [1] is “binds”.

Consider “ProtA-Noc4p lacking Domain 7 (Noc-domain) (from UniProt Q06512)”, for which the binding entry in test [1] was “no binding”.

“ProtA-Noc4p lacking Domain 8 (S. cerevisiae) (domain or fragment)”: in test [1], the binding result was “no binding”.

“ProtA-Noc4p lacking Domain 1 to 4 (S. cerevisiae) (domain or fragment)”: the binding entry in test [1] is on record as “binds”.

As to “ProtA-Noc4p lacking Domain 6 (from UniProt Q06512)”, the binding entry in test [1] was “no binding”.

B1: Nop14p-HA (protein, UniProt Q99207 1-810)
chain: T1 sequence
As to B1, the binding entry in test [2] was “binds”; in test [3] it was “no binding”; in test [4], “binds”.

(Values after PMC2794458.)
